Reference: PubChem BioAssay AID540256 (National Center for Advancing Translational Sciences (NCATS), 2011)
Several values for one entry are separate records, joined by “and”; a condition that tells them apart may be missing. Equal values may be shown once. The campaign covered roughly 300,000 compounds. About 3,700 (1.2%) were called active. This list was built around the results that the source calls inconclusive (neither active nor inactive); the mix of calls is not that of the screen. Calls follow the shape of the full dose curve; tested in HEK293 cells. Potencies beside an inconclusive call are fits to weak or partial responses and may not hold up.

test: qHTS for Inhibitors of binding or entry into cells for Lassa Virus; conditions: Lassa virus pseudotype entry inhibition, cell reporter; series mostly up to 37.9 µM; also: nearly all actives have a fitted effect of over 50% in size
Potency is read from the fitted curve at half-maximal effect.

| Structure (SMILES) | Potency |
| --- | --- |
| CC(C)OC(=O)c1cc2c(ccn2C)n1CC(=O)N(Cc1ccccc1)c1ccc(F)cc1 | active: 5.01 µM |
| CCN(Cc1cc(=O)[nH]c2ccccc12)C(=O)C(C)C | inactive |
| c1ccc(-c2noc(CSc3nnnn3C3CCCCC3)n2)cc1 | inactive |
| Cc1ccc(NS(=O)(=O)c2c(C)[nH]c(C)c2C(=O)N2CCCC2)cc1Cl | inconclusive: 11.2 µM [inhibitor, partial curve, poor fit] |
| O=C1N/C(=C/c2ccc(N3CCOCC3)cc2)C(=O)N1Cc1ccc(F)cc1 | inconclusive: 7.94 µM [inhibitor, partial curve, poor fit] |
| COc1ccc(C2C(=O)c3ccccc3C2=O)c(OC)c1 | inconclusive: 0.0041 µM [inhibitor, full curve, poor fit] |
| Fc1ccc(Nc2nc(-c3ccncc3)nc3ccccc23)cc1 | inconclusive: 0.447 µM [activator, partial curve, poor fit] |
| CN(C)C(=O)N1CCC(C(=O)NC2CCCCCCC2)CC1 | inconclusive: 18.3 µM [activator, partial curve] |
| COc1ccc(CCNS(=O)(=O)c2ccc(Cl)s2)cc1OC | inconclusive: 1.26 µM [inhibitor, single point] |
| COc1ccc(C(=O)NCC2CCCO2)cc1 (configuration not stated) | inconclusive: 10 µM [activator, single point] |
| CCOC(=O)CC(=O)CSc1nc2c(sc(=S)n2-c2ccc(OCC)cc2)c(=O)[nH]1 | inconclusive: 18.4 µM [inhibitor, single point] |
| Cc1cc(/C=N\NC(=O)COc2cccc3cccnc23)c(C)n1-c1ccc(Br)cc1 | inactive |
| COC(=O)Cc1ccc(N(Cc2ccccc2F)S(=O)(=O)c2ccc(Cl)cc2)cc1 | inconclusive: 25.9 µM [inhibitor, single point] |
| O=C(Cc1ccccc1)c1nc2ccccc2s1 | inconclusive: 6.51 µM [activator, single point] |
| CC1CC(C)CN(C(=O)c2cccc(NC(=O)CC3SC(N4CCCCC4)=NC3=O)c2)C1 (configuration not stated) | inconclusive: 10 µM [inhibitor, partial curve, poor fit] |
| CC1CN(N=Cc2ccc([N+](=O)[O-])o2)C(=N)O1 (configuration not stated) | inconclusive: 14.1 µM [inhibitor, single point] |
| O=C(Nc1ccc2c(c1)CCC2)c1cc(S(=O)(=O)Nc2ccc(F)cc2)c(Cl)cc1Cl | inconclusive: 35.5 µM [inhibitor, single point] |
| Cc1cccc(S(=O)(=O)c2cn(C)c3cc(N4CCN(c5ccc(F)cc5)CC4)c(F)cc3c2=O)c1 | inactive |
| Cc1ccc(NC(=O)c2sc3nc(C)cc(C)c3c2N)cc1 | inconclusive: 17.8 µM [inhibitor, single point] |
| O=C(CSc1nc2ccccc2c(=O)n1CC1CCCO1)Nc1ccccc1 (configuration not stated) | inactive |
| O=C(NCCN1CCCC1=O)C1CCC(=O)N(CCc2cccc(F)c2)C1 (configuration not stated) | inactive |

Molecules above containing a carbonyl joined to an NH by a bond outside any ring (8):

| Structure (SMILES) | Potency |
| --- | --- |
| CN(C)C(=O)N1CCC(C(=O)NC2CCCCCCC2)CC1 | inconclusive: 18.3 µM [activator, partial curve] |
| COc1ccc(C(=O)NCC2CCCO2)cc1 (configuration not stated) | inconclusive: 10 µM [activator, single point] |
| Cc1cc(/C=N\NC(=O)COc2cccc3cccnc23)c(C)n1-c1ccc(Br)cc1 | inactive |
| CC1CC(C)CN(C(=O)c2cccc(NC(=O)CC3SC(N4CCCCC4)=NC3=O)c2)C1 (configuration not stated) | inconclusive: 10 µM [inhibitor, partial curve, poor fit] |
| O=C(Nc1ccc2c(c1)CCC2)c1cc(S(=O)(=O)Nc2ccc(F)cc2)c(Cl)cc1Cl | inconclusive: 35.5 µM [inhibitor, single point] |
| Cc1ccc(NC(=O)c2sc3nc(C)cc(C)c3c2N)cc1 | inconclusive: 17.8 µM [inhibitor, single point] |
| O=C(CSc1nc2ccccc2c(=O)n1CC1CCCO1)Nc1ccccc1 (configuration not stated) | inactive |
| O=C(NCCN1CCCC1=O)C1CCC(=O)N(CCc2cccc(F)c2)C1 (configuration not stated) | inactive |

Remaining list, next part:

| Structure (SMILES) | Potency |
| --- | --- |
| Cc1nnc(-c2ccc(C)c(-c3ccc(C(=O)Nc4cccc(C#N)c4)cc3)c2)o1 | inconclusive: 19.9 µM [inhibitor, partial curve, poor fit] |
| O=S(=O)(Cc1cc(Oc2ccccc2)nc(-c2ccccc2)n1)c1ccccc1 | inactive |
| Cc1ccc(S(=O)(=O)N(C)C)cc1NC(=O)COC(=O)CCC1CCCCC1 | inconclusive: 15.8 µM [activator, partial curve, poor fit] |
| Cc1ccc(S(=O)(=O)CCC(=O)NCc2ccccc2F)cc1 | inconclusive: 22.4 µM [inhibitor, single point] |
| COc1ccc(OC)c(/C=N/NC(=O)CCN2CCN(C(c3ccccc3)c3ccccc3)CC2)c1 | inconclusive: 35.5 µM [inhibitor, single point] |
| CCOC(=O)CNC(c1ccccc1)c1cc(Br)ccc1NC(=O)c1cccc(Cl)c1 (configuration not stated) | inconclusive: 11.2 µM [inhibitor, single point] |
| COc1ccc(-c2cc(C(=O)OCC(=O)N(C)C3CCS(=O)(=O)C3)c3ccccc3n2)cc1OC (configuration not stated) | inconclusive: 10 µM [inhibitor, partial curve, poor fit] |
| Cc1onc(-c2ccccc2)c1C(=O)NCC1COc2ccccc2O1 (configuration not stated) | inactive |
| Cc1ccc(Cl)cc1N1CCN(C(=O)c2cc(S(=O)(=O)N3CCCC3)c[nH]2)CC1 | inactive |
| CC(=O)N1CCCc2cc(S(=O)(=O)N3CCC(C(=O)NCc4ccccc4)CC3)ccc21 | inconclusive: 7.94 µM [inhibitor, partial curve, poor fit] |
| O=C(CCN1CCN(CCO)CC1)Nc1cccc(Br)c1 | inconclusive: 14.1 µM [activator, partial curve, poor fit] |
| CCc1nnc(SCC(=O)N(CC)c2ccccc2)c2cc3oc(C)cc3n12 | inactive |
| Cc1ccc2c(=O)cc(C(=O)Nc3ccc(S(=O)(=O)N4CCCCCC4)cc3)oc2c1 | inactive |
| COc1ccc(-n2c3c(cc(C(=O)Nc4ccc(C)cc4)c2=O)C(=O)CCC3)cc1 | inconclusive: 1.58 µM [inhibitor, full curve] |
| Cc1ccccc1OCC(=O)Nc1ccc(S(=O)(=O)N2CCCC2)cc1 | inconclusive: 35.5 µM [inhibitor, single point] |
| COc1ccc2cnn(Cc3ccccc3)c(=O)c2c1OC | inactive |
| O=C(Nc1cccc(Cl)c1)OC1CCCCc2cccnc21 (configuration not stated) | inconclusive: 11.2 µM [inhibitor, single point] |
| O=C(c1ccc(-n2cccc2)cc1)N1CCN(Cc2ccccc2)CC1 | inactive |
| CCCC(=O)OCCNc1cc(SCc2ccco2)c2nonc2c1[N+](=O)[O-] | inconclusive: 14.1 µM [inhibitor, partial curve, poor fit] |
| O=C(CSc1nnc(-c2ccc(O)cc2)o1)Nc1cccc(O)c1 | inconclusive: 2.24 µM [inhibitor, partial curve, poor fit] |
| CCCCNC(=O)c1ccccc1NC(=O)CN(c1ccccc1)S(=O)(=O)N(C)C | inconclusive: 17.8 µM [inhibitor, single point] and inconclusive: 12.6 µM [inhibitor, partial curve] |
